Test results reported in PubChem BioAssay AID504467 (National Center for Advancing Translational Sciences (NCATS), 2011).
About 7,700 (2.3%) of roughly 330,000 compounds were called active. This list was built around the results that the source calls inconclusive (neither active nor inactive); the mix of calls is not that of the screen. Calls follow the shape of the dose curve; as a rule, active = well fitted inhibition curve with a large enough effect; inconclusive = small, poorly fitted or top-dose-only effect, or effect the other way; inactive = flat fitted curve, though single readings scatter. Potencies of inconclusive entries are doubtful fits and often do not repeat.

Assay: qHTS screen for small molecules that inhibit ELG1-dependent DNA repair in human embryonic kidney (HEK293T) cells expressing luciferase-tagged ELG1; also: nearly all actives have a fitted effect of over 55% in size
Settings: HEK293T ELG1-luciferase reporter, luminescence, 16 h, DNA damage induced by 5-fluorouridine; activity change, negative = inhibition: at 46.1 µM (top of the series)
Method in brief: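 Reporter activity after DNA damage by 5-fluorouridine is monitored. Compound-treated cells incubate 16 hr at 37 °C, then ONE-Glo is added for 30 min before luminescence reading.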
% is scaled to controls: 0 for no effect and ±100 for the full control effect; potency is read from the fitted curve at half-maximal effect.

SMILES	Potency	activity change, negative = inhibition
C=CCN1c2ccccc2[C@]23C[C@@H](C(=O)OC)N(C(=O)c4cccs4)C2=NC(C(=O)OC)=C(C(=O)OC)[C@H]13	inconclusive: 29.1 µM [inhibitor, single point]	
Cc1ccc(OCC(=O)Nc2ccc(NC(=O)c3ccco3)cc2)c(C)c1	inconclusive: 20.6 µM [activator, partial curve, poor fit]	
O=C1C=C(c2ccccc2)C(O)(c2ccccc2)C1 (stereo unspecified)		inactive: -3.48%
CSc1ccc(CCCCCCOC(=O)C(C)(C)C)cc1	inconclusive: 7.3 µM [activator, partial curve]	
Cc1nnc(N2C(=O)C(=O)/C(=C(/O)c3ccc4c(c3)OCCO4)C2c2ccc([N+](=O)[O-])cc2)s1 (stereo unspecified)	inconclusive: 10.3 µM [activator, partial curve, poor fit]	
C#CC(CC)(CC)NC(=O)c1cc(S(=O)(=O)N2CCCCC2)ccc1N1CCOCC1		inactive: 8.09%
CN1C(=O)CSc2ccc(NC(=O)N3CCN(c4ccccn4)CC3)cc21	inconclusive: 29.1 µM [inhibitor, single point]	
COc1ccc(N2CS(=O)(=O)/C(=C/N(C)C)C2=O)cc1	inconclusive: 16.4 µM [activator, partial curve]	
CCCn1c(=O)c2c(C(F)(F)F)cc(-c3ccco3)nc2n(CCC)c1=O		inactive: 1.82%
Cc1cccc(C(=O)Nc2nnc(S(=O)(=O)N3CCOCC3)s2)c1		inactive: 16.3%
CN(C)S(=O)(=O)c1cccc(C(=O)N2CCN(C(=O)C3CCCO3)CC2)c1 (stereo unspecified)	inconclusive: 25.9 µM [activator, single point]	
O=C(/C=C/c1cc2c(cc1Br)OCO2)NCc1ccc(Cl)cc1	inconclusive: 29.1 µM [activator, single point]	
COc1ccc(-n2c(Cc3ccccc3)nnc2SCC(=O)N2CCCc3ccccc32)cc1	inconclusive: 18.4 µM [inhibitor, partial curve, poor fit]	
CCOC(=O)c1ccc(Oc2nc(N(C)C)nc(N3CCOCC3)n2)cc1	inconclusive: 23.1 µM [inhibitor, partial curve, poor fit]	
O=C(c1ccc(OC2CCN(Cc3ccccc3C(F)(F)F)CC2)cc1)N1CCCCC1	inconclusive: 14.6 µM [inhibitor, partial curve, poor fit]	
CCc1ccc(CNC(=O)CCn2ccc3cc(S(=O)(=O)N4CCCC4)ccc32)cc1	inconclusive: 29.1 µM [inhibitor, single point]	
COc1cccc(CNc2ncc(C(=O)Nc3cc(OC)c(OC)c(OC)c3)c(C)n2)c1	inconclusive: 7.3 µM [inhibitor, partial curve]	
Cc1ccc(Cl)cc1N1CCN(C(=O)CN2C(=O)c3cccc4cccc2c34)CC1	active: 20.6 µM	
CCOc1cc(N2CCOCC2)c(OCC)cc1NC(=O)CSc1ncn[nH]1		inactive: 1.3%
COc1ccc(S(=O)(=O)N2CCOC2CNC(=O)C(=O)NCCc2ccccc2)cc1C (stereo unspecified)	inconclusive: 25.9 µM [inhibitor, partial curve, poor fit]	
CCOC(=O)c1cn(Cc2cccc(Cl)c2)nn1		inactive: 7.48%
Cc1ccc(NN=Nc2nc3c([nH]2)c(=O)n(C)c(=O)n3C)cc1	inconclusive: 13 µM [activator, partial curve]	

SMILES	Potency	activity change, negative = inhibition
Oc1c(Br)cc(C2N=C(c3ccccc3)NO2)cc1Br (stereo unspecified)	inconclusive: 23.1 µM [activator, single point]	
O=c1[nH]nc(Cc2ccc(-c3cccc(Cl)c3)o2)c2ccccc12		inactive: -9.22%
COc1cc(OC)cc(C(=O)Nc2ccc(NC(=O)c3ccco3)c(C)c2)c1	inconclusive: 25.9 µM [activator, single point]	
CC(C)c1ccc(NC(=O)[C@H](Cc2c[nH]c3ccccc23)NC(=O)[C@@H]2Cc3ccccc3CN2)cc1	inconclusive: 1.64 µM [activator, partial curve, poor fit]	
CC(=O)c1cccc(-c2csc(N3CCC(C(N)=O)CC3)n2)c1	inconclusive: 18.3 µM [activator, partial curve]	
Cn1c(NC(=S)Nc2ccccc2)nc2ccccc21	inconclusive: 2.59 µM [activator, full curve]	
Cc1cc(=O)oc2c3c(cc(OCC(=O)NCc4ccncc4)c12)OC(C)(C)CC3		inactive: -1.17%
Cc1ccc(S(=O)(=O)N2CCN(C(=O)CSc3ccccn3)CC2)c(C)c1	inconclusive: 23.1 µM [inhibitor, single point]	
COc1cc2nc(CN3CCN(S(=O)(=O)c4ccccc4)CC3)[nH]c(=O)c2cc1OC	inconclusive: 3.26 µM [inhibitor, partial curve, poor fit]	
Cc1cccc(Nc2nc(-c3ccc(O)c(O)c3)cs2)n1	inconclusive: 15.8 µM [activator, partial curve, poor fit]	
COc1ccc(NC(=O)C2CC(=O)N(c3ccccc3Cl)C2)c(OC)c1 (stereo unspecified)		inactive: 3.34%
Cc1ccc(CSc2nc3ccncc3n2CC(=O)Nc2cc(C)cc(C)c2)cc1	inconclusive: 6.51 µM [activator, partial curve]	
CC(Cc1ccccc1)NC(=O)c1ccc([N+](=O)[O-])cc1 (stereo unspecified)	inconclusive: 5.8 µM [activator, partial curve]	
CCOC(=O)CC(=O)CSc1nc2ccc(OC)cc2cc1C		inactive: 1.21%
COc1ccc([C@H]2CC(=O)C=C(c3ccc(OC)c(F)c3)C2)cc1	inconclusive: 16.4 µM [inhibitor, partial curve]	
COc1ccc2c(c1)c(CC(=O)Nc1cccc(S(N)(=O)=O)c1)c(C)n2C(=O)c1ccc(Cl)cc1	active: 18.3 µM	
CN(C)/C=C(\C#N)C(=O)N/N=C/c1ccccc1	inconclusive: 13 µM [activator, partial curve]	
CC(=O)c1c(-c2ccccc2)c2cc(Cl)ccc2[nH]c1=O	inconclusive: 1.16 µM [activator, single point]	
COc1ccc(Cl)cc1S(=O)(=O)Nc1ccc2c(c1)n(C)c(=O)n2C	inconclusive: 13 µM [activator, partial curve]	
Nc1nc(-c2ccc3c(c2)CCCC3)c(CC(=O)O)s1		inactive: 2.74%
COCC(=O)N1CCC(Oc2ccc(C(=O)N3C[C@H]4CC[C@H]3C4)cc2)CC1		inactive: -4.34%
Cc1cc(Cl)ccc1OC(C)c1nnc(N)s1 (stereo unspecified)	inconclusive: 20.6 µM [activator, single point]	

Among those listed so far, these contain a nitro group on carbon:
SMILES	Potency	activity change, negative = inhibition
Cc1nnc(N2C(=O)C(=O)/C(=C(/O)c3ccc4c(c3)OCCO4)C2c2ccc([N+](=O)[O-])cc2)s1 (stereo unspecified)	inconclusive: 10.3 µM [activator, partial curve, poor fit]	
CC(Cc1ccccc1)NC(=O)c1ccc([N+](=O)[O-])cc1 (stereo unspecified)	inconclusive: 5.8 µM [activator, partial curve]	

(cont.)

SMILES	Potency	activity change, negative = inhibition
CC(C)=C1SC(N2CCN(c3ccc(Cl)cc3)CC2)=NC1=O		inactive: -16.9%
Cc1csc(SCC(=O)Nc2ccc(C)c(F)c2)n1	inconclusive: 14.6 µM [activator, partial curve]	
CCOc1ccc2oc(C(=O)NC3CCN(Cc4ccccc4)CC3)c(C)c2c1	inconclusive: 29.1 µM [inhibitor, single point]	
CCOC(=O)C1CCN(Cc2nc(-c3ccc(OC)c(OC)c3)no2)CC1	inconclusive: 25.9 µM [inhibitor, partial curve, poor fit]	
CCCN1C(=O)/C(=C2\SC(N3CCCCC3)=NC2=O)c2ccccc21	inconclusive: 1.58 µM [activator, single point]	
Cc1cc(C)c(S(=O)(=O)ON2C(=O)c3ccccc3C2=O)cc1C		inactive: 13.6%
CN(C)c1nc(OCCNC(=O)COc2ccc(Cl)cc2Cl)nc(N2CCOCC2)n1	inconclusive: 29.1 µM [inhibitor, single point]	
COc1ccc(CN(C(=O)c2cnccn2)C(C(=O)Nc2ccc(F)cc2)c2ccccc2)cc1 (stereo unspecified)	inconclusive: 23.1 µM [inhibitor, partial curve, poor fit]	
Cc1c(/C=C2\SC(=Nc3cccc(C(=O)O)c3)NC2=O)c2ccccc2n1C	inconclusive: 20.6 µM [activator, single point]	
COc1ccc2cc(S(=O)(=O)Nc3ccccn3)ccc2c1		inactive: -4.39%
COc1ccc(-n2cnc3cc(N)ccc32)cc1	inconclusive: 18.4 µM [activator, partial curve]	
O=C(Nc1nc2ccccc2[nH]1)c1cccs1	inconclusive: 2.31 µM [activator, partial curve]	
CSc1c(CC(=O)Nc2ccccc2)n(C)c2ccccc12	inconclusive: 20.6 µM [activator, partial curve, poor fit]	
CC1(c2nnc(-c3ccc(F)cc3)o2)CC(c2cccc(Cl)c2)=NO1 (stereo unspecified)	inconclusive: 29.1 µM [inhibitor, single point]	
COc1ccc(CCNC(=O)c2[nH]c(C)c(C(C)=O)c2C)cc1		inactive: -17.4%
O=C(Cc1ccc(Cl)cc1)NCc1ccccc1Cl	inconclusive: 11.6 µM [activator, partial curve]	
O=C(COc1ccccc1F)NNC(=O)c1ccc(F)c(S(=O)(=O)N2CCOCC2)c1	inconclusive: 20.6 µM [inhibitor, partial curve, poor fit]	
CCOC(=O)c1cc(-c2ccco2)nc2c1c(C)nn2CCC#N	inconclusive: 20.6 µM [inhibitor, partial curve]	
O=C(NCc1ccco1)C1CCN(C(=O)c2ccc(Cl)cc2)CC1		inactive: 4.22%
CC1O[C@@H](O[C@H](C)CC/C=C/C(=O)O)C(O)C[C@H]1O (stereo partly specified)	inconclusive: 29.1 µM [activator, single point]	
CC(=O)c1cccc(NC(=O)c2ccc3ccccc3c2)c1	inconclusive: 2.51 µM [activator, partial curve, poor fit]	
O=C(Nc1ccc2c(c1)CCC2)c1ccc(Br)o1	inconclusive: 9.2 µM [activator, partial curve]	
